These are yes or no findings as the source states them, for the method shown. Some binding calls cover weakened binding; strength is not graded here. Sequences can lack the tags named with a protein.
Molecular target: S. pombe tropomyosin Cdc8 (S. pombe (endogenous in S. pombe cells)) (UniProt Q02088)
Assay: live-cell fluorescence imaging of the expressed nanobody-mNG fusion; Nb5–mNG expressed in S. pombe cells and imaged by spinning disk confocal microscopy at 25°C; Cdc8-containing patches, cables, CAR and fusion focus were decorated

The chains behind the UniProt entries cited, without tags or fusion partners.
UniProt Q02088: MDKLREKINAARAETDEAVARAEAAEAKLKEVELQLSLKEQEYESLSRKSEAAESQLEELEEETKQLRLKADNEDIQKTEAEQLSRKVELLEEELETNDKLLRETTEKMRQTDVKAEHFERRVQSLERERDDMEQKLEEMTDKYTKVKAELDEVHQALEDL

- binding: binds
B1: Nanobody 5 fused to mNG (Nb5–mNG) (VHH)
VHH: EVQLQASGGGFVQPGGSLRLSCAASGRTYEQSAMGWFRQAPGKEREFVSAISRNSGQWQYYADSVKGRFTISRDNSKNTVYLQMNSLRAEDTATYYCARAFDVLIKGATYSREYWGQGTQVTVSS

Reference: article PMC9592052
